# Assay results from PubChem BioAssay AID1259415 (National Center for Advancing Translational Sciences (NCATS), 2018).
# About 18,000 (4.4%) of roughly 410,000 compounds were called active. The shares of active, inactive and inconclusive entries below differ from those in the screen. Cut-off read from the data, not from the text of the source: active = activity change below about -60%; inconclusive = no clear call, values can overlap the other calls; inactive = above about -39%.
# Assay: qHTS Assay for inhibitors of the human cytomegalovirus (HCMV)
# Settings: HFF cells, HCMV-luciferase reporter, 72 h; at 57.5 µM; active compounds read low
# In short: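 After 16 h attachment at 37C, HFF cells received test compound and HCMV-luciferase (1 PFU/cell); reporter luminescence read 72 h later, data normalized against buffer-only and known inhibitor Salinomycin.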
# % is set by controls: 0 for no effect and ±100 for the full control effect.
row,Structure (SMILES),"activity change, negative = inhibition"
1,Cc1ccccc1-c1nc(CN2CCC(C(=O)NCCCN3CCCC(C)C3)CC2)c(C)o1 (stereo unspecified),active: -63.4%
2,COc1ccc(C(=O)CC2(O)C(=O)N(CCc3ccccc3)c3ccc(Br)cc32)cc1OC (stereo unspecified),inactive: 1.45%
3,COc1ccc2nc(NC(=O)CSc3nnc4n3C(C)(C)Cc3ccccc3-4)sc2c1,inconclusive: -43.9%
4,COc1cc(N)c(Cl)cc1C(=O)OCC(=O)NCc1cccs1,inconclusive: -56.1%
5,Cc1ccc(NC(=O)CN(C)C(=O)c2ccc(OCc3cn4ccccc4n3)cc2)cc1,inconclusive: -59.9%
6,CN(C)S(=O)(=O)n1cc(/C=C(\NC(=O)c2ccccc2Cl)C(=O)N2CCCC2)c2ccccc21,inconclusive: -42.3%
7,CC(C)(C)C(=O)Nc1ccccc1C(=O)Nc1cccnc1,inactive: -8.5%
8,O=C(Cc1ccccc1)Nc1cccc([N+](=O)[O-])c1,inconclusive: -43.3%
9,COc1cccc(CC2(CO)CCN(C(=O)NC3CCCCC3)CC2)c1,inconclusive: -49.7%
10,c1ccc(CCCN2CCN(CCOC(c3ccccc3)c3ccccc3)CC2)cc1,active: -65.8%
11,O=C1CC(c2ccco2)Cc2c1cnn2-c1nc2ccccc2s1 (stereo unspecified),inconclusive: -43.7%
12,COc1ccc(Cn2c(NCC(C)C)nc3c2c(=O)n(C)c(=O)n3C)cc1,inactive: -0.814%
13,O=C(CSc1nc(O)cc(=O)n1C1CCCC1)Nc1cccc(Cl)c1Cl,inconclusive: -41.6%
14,CC(C)C(CCNCc1ccccn1)c1ccc(Cl)cc1 (stereo unspecified),inconclusive: -57.6%
15,O=C(CSc1nnc(-c2c[nH]c3ccccc23)o1)c1ccc(-c2ccccc2)cc1,inconclusive: -54.4%
16,O=C(c1ccc(N2CCOCC2)c([N+](=O)[O-])c1)N1CCN(c2ccccc2F)CC1,active: -77.5%
17,CC(C)c1cc(C(F)(F)F)nc(NNc2nc(C(C)C)cc(C(F)(F)F)n2)n1,inactive: -15.8%
18,COc1ccc(-c2csc(NC(=O)Nc3ccccc3)n2)cc1,inconclusive: -42.8%
19,c1c2c(cc3sc(N4CCOCC4)nc13)OCCO2,inconclusive: -58.8%
20,O=[N+]([O-])c1cc(-c2nc(-c3ccccc3)no2)ccc1N1CCCC1,active: -80.1%
21,COc1ccc2cc3c(N)nn(C(=O)c4ccc(F)cc4)c3nc2c1,active: -86.9%
22,COc1cccc(CNC(=O)CCc2nnc3n(CC(C)C)c(=O)c4ccccc4n23)c1,inconclusive: -55.4%

# Part of the list above, with bars between the fields.
row | Structure (SMILES) | activity change, negative = inhibition
8 | O=C(Cc1ccccc1)Nc1cccc([N+](=O)[O-])c1 | inconclusive: -43.3%
9 | COc1cccc(CC2(CO)CCN(C(=O)NC3CCCCC3)CC2)c1 | inconclusive: -49.7%

# Continuation.

row,Structure (SMILES),"activity change, negative = inhibition"
1,CCc1ccc(NC(=O)Cn2nc(C(F)(F)F)c3c2CCC3)cc1,inconclusive: -47.5%
2,CC(C)[C@H](NC(=O)C1CCCC1)c1nc2ccccc2[nH]1,inactive: 7.14%
3,Fc1ccc(Oc2nc(-c3ccccn3)nc3ccccc23)cc1,inconclusive: -53.3%
4,Cc1cccc(Nc2nc(-c3ccccc3)c3cc(C)ccc3n2)c1,inactive: -34.4%
5,Cc1c(Nc2nc(-c3ccc(Cl)cc3)cs2)c(=O)n(-c2ccccc2)n1C,inconclusive: -45.5%
6,COc1cc2c(cc1OC)C1(C)N(CC2)C(C(C)=O)=NN1c1ccc(Cl)cc1 (stereo unspecified),inactive: 13.1%
7,COc1cccc(-c2ccc(NC(=O)C3CCCN(Cc4cc(C)[nH]n4)C3)cc2)c1 (stereo unspecified),inconclusive: -50.8%
8,CC(=O)N=c1c(C#N)cc2c(=O)n3cccc(C)c3nc2n1Cc1ccco1,inconclusive: -41.9%
9,O=C(CSc1nc(-c2ccccc2)[nH]c1-c1ccccc1)Nc1ccc2c(c1)OCO2,active: -109%
10,COc1ccccc1Cn1c(CNS(=O)(=O)c2ccc3c(c2)CCCC3)nc2cccnc21,inactive: -25.7%
11,CCOC1=C2CN(S(=O)(=O)c3ccc(C)cc3)C(c3cccc(Cl)c3)CC2N(S(=O)(=O)c2ccc(Cl)cc2)C(c2ccccc2)C1 (stereo unspecified),inconclusive: -47.5%
12,COc1ccc(C2(C)NC(=O)N(CC(=O)c3cc(C)n(C4CC4)c3C)C2=O)cc1 (stereo unspecified),inconclusive: -43.3%
13,O=C(NCc1ccccc1)C1=C[C@H](C2CCCCC2)C[C@H](OCc2ccc(CO)cc2)O1,active: -83.6%
14,CC(C)CC(=O)NC(=S)Nc1ccc(S(=O)(=O)Nc2nccs2)cc1,active: -70.6%
15,COc1ccc(CNc2ncnc3c2[nH]c2ccccc23)cc1,active: -71.8%
16,COc1cccc(C(O)c2nc(-c3cccc(F)c3)cs2)c1 (stereo unspecified),inactive: -20.2%
17,CC(C)(C)OC(=O)[C@H](Cc1ccccc1)NC(=O)c1nc[nH]c1C(=O)N[C@@H](CCCCN)C(=O)OC(C)(C)C,active: -67.9%
18,Cc1nnc(C)c2c(C)n(N)c(C)c12,inconclusive: -41.6%
19,CCc1nc2oc3ccccc3c(=O)c2c(=O)n1Cc1ccc(OC)cc1,inconclusive: -42.6%
20,Fc1ccc(Nc2nc3nonc3nc2Nc2cccc(C(F)(F)F)c2)cc1,active: -101%
21,O=C1c2cccc3cc([N+](=O)[O-])cc(c23)C(=O)N1CCN1CCCC1,active: -100%
22,COc1ccc(C(=O)C2CCN(S(=O)(=O)c3ccc4c(c3)OCCO4)CC2)cc1,inconclusive: -53.1%

# Retrieved by compound from the entries so far, two records:
row,Structure (SMILES),"activity change, negative = inhibition"
20,Fc1ccc(Nc2nc3nonc3nc2Nc2cccc(C(F)(F)F)c2)cc1,active: -101%
2,CC(C)[C@H](NC(=O)C1CCCC1)c1nc2ccccc2[nH]1,inactive: 7.14%

# (further entries)

row,Structure (SMILES),"activity change, negative = inhibition"
1,Cc1ccc(C(=O)Nc2ccc3c(c2)N(C)C(=O)c2ccccc2S3)cc1,inconclusive: -56.3%
2,CCc1ccc(NC(=O)c2cc(S(=O)(=O)N3CCCC3)ccc2F)cc1,inconclusive: -42.2%
3,CCC1CCCCN1CCCNC(=O)c1ccc2c(c1)N(Cc1ccccc1F)C(=O)c1ccccc1S2(=O)=O (stereo unspecified),active: -101%
4,CCCN1CCC(=O)N([C@H](CO)c2ccccc2)CC1,inconclusive: -46.8%
5,COc1ccc(NC2CCCN(C(=O)c3ccccc3-c3ncc[nH]3)C2)cc1 (stereo unspecified),inconclusive: -47.1%
6,C/C(=N\Nc1ccc(Cl)cc1)c1c(O)cc(C)oc1=O,inactive: -33.3%
7,COCCCNC(NC(=O)c1ccc(Br)cc1)C(Cl)(Cl)Cl (stereo unspecified),active: -65.7%
8,CNC(=S)Nc1ccc(N2CCN(c3ccc(C(F)(F)F)cn3)CC2)nc1,inconclusive: -54.2%
9,COC(=O)c1nnn(CC(=O)Nc2cc(F)ccc2F)c1C(=O)OC,active: -109%
10,COC(=O)c1sccc1NC(=O)CSc1cc(Cl)ccc1Cl,inconclusive: -40.1%
11,CC(NCc1cccc(OCc2ccccc2)c1)C(O)c1ccccc1 (stereo unspecified),inconclusive: -51.4%
12,CCCCn1c2nc3ccccc3nc2c2c(=O)n(CC(C)C)cnc21,active: -62.2%
13,COc1ccc(S(=O)(=O)Nc2cc(Sc3ncn[nH]3)c(O)cc2C)cc1,inconclusive: -40.7%
14,COc1ccc(-c2nc(-c3ccncc3)no2)cc1OC,inactive: 68.4%
15,Cc1c(-c2nsc(NC(=O)c3cccs3)n2)nnn1-c1ccc(Cl)cc1,inconclusive: -45.7%
16,Cc1nn2c(=O)cc(COC(=O)c3cccc(NC(=O)COc4ccc(C)c(C)c4)c3)nc2s1,active: -61.7%
17,COC(=O)c1ccccc1Nc1ccnc(Cl)n1,inactive: -25.3%
18,O=C(NNS(=O)(=O)c1ccc2ccccc2c1)C1CCN(Cc2ccccc2)CC1,active: -107%
19,CCOC(=O)c1cccc(-[n+]2c(-c3ccccc3)cc(-c3ccccc3)cc2-c2ccccc2)c1,active: -99.1%
20,O=C(COC(=O)c1cccc(S(=O)(=O)N2CCN(c3ccccc3)CC2)c1)NCC1CCCO1 (stereo unspecified),inconclusive: -42.7%
21,O=C(CCS(=O)(=O)c1ccccc1)Nc1nc(-c2ccccn2)cs1,active: -103%
22,Cc1cccc(C(=O)NCCNC(=O)c2cccc(C)c2)c1,inconclusive: -41.6%

row,Structure (SMILES),"activity change, negative = inhibition"
1,CCN(CC)S(=O)(=O)c1ccc2c(c1)c(=O)c(C(=O)N1CCN(c3ccccn3)CC1)cn2C,inconclusive: -40.2%
2,COc1cc(/C=N/O)ccc1OCc1ccccc1Cl,inactive: 5.16%
3,Cc1ccc(C(=O)N(CC(=O)NC2CCCC2)c2ccc(F)cc2)s1,inconclusive: -52%
4,CC(=O)CSc1nnc2c3ccccc3nc(C(C)(C)C)n12,inconclusive: -47.2%
5,Cc1ccc2c(c1)N(C(=O)CCC(=O)NCc1cccnc1)CC(C)O2 (stereo unspecified),inactive: 13.5%
6,COc1cc(C(=O)NCCNc2nc3c(C)cccc3cc2C#N)cc(OC)c1OC,inconclusive: -50.4%
7,Cc1cccc(-n2ncc(C(=O)N3CCc4ccccc4C3)c2C2CCN(C(=O)OC(C)(C)C)CC2)c1,inconclusive: 0%
8,Cc1oc2ccc(O)c(CN3CCCCCC3)c2c1C(=O)Nc1cccc(Cl)c1C,active: -99.7%
9,COC(=O)C1=C(c2ccc(Cl)c(C(F)(F)F)c2)C[C@@H]2CC[C@H]1N2C(=O)NC1CCCCC1,inconclusive: -40.4%
10,O=C(O)/C=C/C(=O)Nc1ccc(-n2ccc(C(F)(F)F)n2)cc1,inconclusive: -41%
11,O=C(Nc1ccc(NC(=O)c2ccco2)nc1)c1ccco1,inconclusive: -46.6%
12,CCCCn1c(=N)n(CC(O)c2ccccc2)c2ccccc21 (stereo unspecified),inconclusive: -44.9%
13,CCn1c(=O)c2c(cnn2C)c2ccccc21,inconclusive: -40.6%
14,COc1ccc(N(CC(=O)NCc2cccnc2)S(=O)(=O)c2ccccc2)c(OC)c1,inconclusive: -40.9%
15,Cc1cccc(NC(=O)CSc2nnc(N)s2)c1,inactive: -8.45%
16,Clc1ccc(-c2csc3ncnc(Cl)c23)cc1,inactive: 8.8%
17,O=C(CCCN1C(=O)c2cccc3cccc(c23)C1=O)NCc1ccco1,active: -88.9%
18,COc1cccc(/C=C2/CN(C)CC3=C2OC(N)=C(C#N)C3c2cccc(OC)c2)c1 (stereo unspecified),inactive: 9.07%
19,COC(=O)c1ccc(CN2CCN(Cc3ccccc3)CC2)cc1,inactive: 25.7%
20,Cc1c(C(=O)N/N=C/C(C)C)[nH]c2ccc([N+](=O)[O-])cc12,active: -75.4%
